Results are given in words; binding and its absence hold for the method and conditions named. Some binding calls cover weakened binding; strength is not graded here.
B1: BCMA-9 scFv (scFv)
scFv: QVQLVESGGGLVKPGGSLRLSCAASGFTFSDYYMSWIRQAPGKGLEWVSYISSSGSTIYYADSVKGRFTISRDNAKNSLYLQMNSLRAEDTAVYYCARESGDGMDVWGQGTTVTVSSASGGGGSGGRASGGGGSDIQMTQSPSSLSASVGDRVTITCRASQSISSYLNWYQQKPGKAPKLLIYAASSLQSGVPSRFSGSGSGTDFTLTISSLQPEDFATYYCQQSYTLAFGQGTKVDIK
B2: BCMA-2 scFv (scFv)
scFv: QVQLQESGGGLVQPGGSLRLSCAASGFTFSSDAMTWVRQAPGKGLEWVSVISGSGGTTYYADSVKGRFTISRDNSKNTLYLQMNSLRAEDTAVYYCAKLDSSGYYYARGPRYWGQGTLVTVSSASGGGGSGGRASGGGGSDIQLTQSPSSLSASVGDRVTITCRASQSISSYLNWYQQKPGKAPKLLIYGASTLASGVPARFSGSGSGTHFTLTINSLQSEDSATYYCQQSYKRASFGQGTKVEIK
B3: BCMA-11 scFv (scFv)
scFv: QVQLVQSGGGLVKPGGSLRLSCAASGFTFSDYYMSWIRQAPGKGLEWVSYISSSGNTIYYADSVKGRFTISRDNAKNSLYLQMNSLRAEDTAVYYCARSTMVREDYWGQGTLVTVSSASGGGGSGGRASGGGGSDIVLTQSPLSLPVTLGQPASISCKSSESLVHNSGKTYLNWFHQRPGQSPRRLIYEVSNRDSGVPDRFTGSGSGTDFTLKISRVEAEDVGVYYCMQGTHWPGTFGQGTKLEIK
B4: BCMA-3 scFv (scFv)
scFv: QVQLVQSGAEVKKPGASVKVSCKASGYTFSNYGITWVRQAPGQGLEWMGWISAYNGNTNYAQKFQGRVTMTRNTSISTAYMELSSLRSEDTAVYYCARGPYYYYMDVWGKGTMVTVSSASGGGGSGGRASGGGGSEIVMTQSPLSLPVTPGEPASISCRSSQSLLYSNGYNYVDWYLQKPGQSPQLLIYLGSNRASGVPDRFSGSGSGTDFKLQISRVEAEDVGIYYCMQGRQFPYSFGQGTKVEIK
B5: BCMA-1 scFv (scFv)
scFv: QVQLVQSGAEVRKTGASVKVSCKASGYIFDNFGINWVRQAPGQGLEWMGWINPKNNNTNYAQKFQGRVTITADESTNTAYMEVSSLRSEDTAVYYCARGPYYYQSYMDVWGQGTMVTVSSASGGGGSGGRASGGGGSDIVMTQTPLSLPVTPGEPASISCRSSQSLLHSNGYNYLNWYLQKPGQSPQLLIYLGSKRASGVPDRFSGSGSGTDFTLHITRVGAEDVGVYYCMQALQTPYTFGQGTKLEIK
B6: BCMA-4 scFv (scFv)
scFv: QVQLVESGGGLVQPGRSLRLSCAASGFTFSNYAMSWVRQAPGKGLGWVSGISRSGENTYYADSVKGRFTISRDNSKNTLYLQMNSLRDEDTAVYYCARSPAHYYGGMDVWGQGTTVTVSSASGGGGSGGRASGGGGSDIVLTQSPGTLSLSPGERATLSCRASQSISSSFLAWYQQKPGQAPRLLIYGASRRATGIPDRFSGSGSGTDFTLTISRLEPEDSAVYYCQQYHSSPSWTFGQGTKLEIK
B7: BCMA-4NP tool CAR (protein, not shown: a dimerising Fc or GST)
chain: QVQLVQSGAEVKKPGSSVKVSCKASGGTFSNYWMHWVRQAPGQGLEWMGATYRGHSDTYYNQKFKGRVTITADKSTSTAYMELSSLRSEDTAVYYCARGAIYNGYDVLDNWGQGTLVTVSSGGGGSGGGGSGGGGSGGGGSDIQMTQSPSSLSASVGDRVTITCSASQDISNYLNWYQQKPGKAPKLLIYYTSNLHSGVPSRFSGSGSGTDFTLTISSLQPEDFATYYCQQYRKLPWTFGQGTKLEIKR

Protein sequences, listed by entry. Tags and fused reporters are not part of them. Residues count along the entry.
UniProt Q02223, residues 1-54: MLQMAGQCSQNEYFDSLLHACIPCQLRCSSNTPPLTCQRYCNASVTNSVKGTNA
BCMA-Fc antigen (Q02223, residues 5-51): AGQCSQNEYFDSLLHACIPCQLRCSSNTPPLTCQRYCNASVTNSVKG

target: BCMA (recombinant, form not given) (UniProt Q02223); test: phage panning on Bio-BCMA, ELISA for BCMA reactivity, FACS of purified scFv (FACS target not named)

binding, binds:
B1, B2, B3, B4, B5, B6

target: BCMA-Fc antigen (UniProt Q02223); test: flow cytometry of CAR-transduced SupT1 cells stained with BCMA-Fc antigen (titer determination)

binding, binds:
B7

— US20160046724A1
